Source: ChEMBL document CHEMBL4316593 (Eur J Med Chem, 2019)
This continues a long series; more values of the same kind are listed elsewhere.

How the values were obtained:
Assay type in all cases: cell-based
Conditions in all cases: U-87MG ATCC
[1] = Inhibition of RTK/PI3K/AKT/mTOR signaling in human U87 cells assessed as up regulation of centrosomal protein 250 gene expression at cytotoxic IC50 measured after 48 hrs relative to control
[2] = Inhibition of RTK/PI3K/AKT/mTOR signaling in human U87 cells assessed as up regulation of STEAP family member 1 gene expression at cytotoxic IC50 measured after 48 hrs relative to control
[3] = Inhibition of RTK/PI3K/AKT/mTOR signaling in human U87 cells assessed as up regulation of MAGT1 gene expression at cytotoxic IC50 measured after 48 hrs relative to control
[4] = Inhibition of RTK/PI3K/AKT/mTOR signaling in human U87 cells assessed as down regulation of PPP2CB gene expression at cytotoxic IC50 measured after 48 hrs relative to control
[5] = Inhibition of RTK/PI3K/AKT/mTOR signaling in human U87 cells assessed as up regulation of serpin family E member 2 gene expression at cytotoxic IC50 measured after 48 hrs relative to control
[6] = Inhibition of RTK/PI3K/AKT/mTOR signaling in human U87 cells assessed as down regulation of EMC2 gene expression at cytotoxic IC50 measured after 48 hrs relative to control
[7] = Inhibition of RTK/PI3K/AKT/mTOR signaling in human U87 cells assessed as up regulation of AT-rich interaction domain 3A gene expression at cytotoxic IC50 measured after 48 hrs relative to control
[8] = Inhibition of RTK/PI3K/AKT/mTOR signaling in human U87 cells assessed as up regulation of PTOV1 antisense RNA 1 gene expression at cytotoxic IC50 measured after 48 hrs relative to control
[9] = Inhibition of RTK/PI3K/AKT/mTOR signaling in human U87 cells assessed as down regulation of RAD51AP1 gene expression at cytotoxic IC50 measured after 48 hrs relative to control
[10] = Inhibition of RTK/PI3K/AKT/mTOR signaling in human U87 cells assessed as up regulation of TMIE gene expression at cytotoxic IC50 measured after 48 hrs relative to control
[11] = Inhibition of RTK/PI3K/AKT/mTOR signaling in human U87 cells assessed as down regulation of USB1 gene expression at cytotoxic IC50 measured after 48 hrs relative to control
[12] = Inhibition of RTK/PI3K/AKT/mTOR signaling in human U87 cells assessed as down regulation of BSN gene expression at cytotoxic IC50 measured after 48 hrs relative to control
[13] = Inhibition of RTK/PI3K/AKT/mTOR signaling in human U87 cells assessed as up regulation of protein phosphatase 2 phosphatase activator gene expression at cytotoxic IC50 measured after 48 hrs relative to control
[14] = Inhibition of RTK/PI3K/AKT/mTOR signaling in human U87 cells assessed as up regulation of EIF3E gene expression at cytotoxic IC50 measured after 48 hrs relative to control
[15] = Inhibition of RTK/PI3K/AKT/mTOR signaling in human U87 cells assessed as down regulation of ZBTB34 gene expression at cytotoxic IC50 measured after 48 hrs relative to control
[16] = Inhibition of RTK/PI3K/AKT/mTOR signaling in human U87 cells assessed as down regulation of DCTN5 gene expression at cytotoxic IC50 measured after 48 hrs relative to control
[17] = Inhibition of RTK/PI3K/AKT/mTOR signaling in human U87 cells assessed as up regulation of transcription factor 7 like 2 gene expression at cytotoxic IC50 measured after 48 hrs relative to control
[18] = Inhibition of RTK/PI3K/AKT/mTOR signaling in human U87 cells assessed as up regulation of FK506 binding protein 10 gene expression at cytotoxic IC50 measured after 48 hrs relative to control
[19] = Inhibition of RTK/PI3K/AKT/mTOR signaling in human U87 cells assessed as down regulation of ATF7 gene expression at cytotoxic IC50 measured after 48 hrs relative to control
[20] = Inhibition of RTK/PI3K/AKT/mTOR signaling in human U87 cells assessed as down regulation of EIF4G2 gene expression at cytotoxic IC50 measured after 48 hrs relative to control
[21] = Inhibition of RTK/PI3K/AKT/mTOR signaling in human U87 cells assessed as up regulation of FBXO2 gene expression at cytotoxic IC50 measured after 48 hrs relative to control
[22] = Inhibition of RTK/PI3K/AKT/mTOR signaling in human U87 cells assessed as up regulation of ACBD4 gene expression at cytotoxic IC50 measured after 48 hrs relative to control
[23] = Inhibition of RTK/PI3K/AKT/mTOR signaling in human U87 cells assessed as down regulation of PHC2 gene expression at cytotoxic IC50 measured after 48 hrs relative to control
[24] = Inhibition of RTK/PI3K/AKT/mTOR signaling in human U87 cells assessed as down regulation of WBP1L gene expression at cytotoxic IC50 measured after 48 hrs relative to control
[25] = Inhibition of RTK/PI3K/AKT/mTOR signaling in human U87 cells assessed as up regulation of C6orf223 gene expression at cytotoxic IC50 measured after 48 hrs relative to control
[26] = Inhibition of RTK/PI3K/AKT/mTOR signaling in human U87 cells assessed as up regulation of EEF1B2 gene expression at cytotoxic IC50 measured after 48 hrs relative to control
[27] = Inhibition of RTK/PI3K/AKT/mTOR signaling in human U87 cells assessed as up regulation of EIF3H gene expression at cytotoxic IC50 measured after 48 hrs relative to control
[28] = Inhibition of RTK/PI3K/AKT/mTOR signaling in human U87 cells assessed as up regulation of MICAL2 gene expression at cytotoxic IC50 measured after 48 hrs relative to control
[29] = Inhibition of RTK/PI3K/AKT/mTOR signaling in human U87 cells assessed as down regulation of MIDN gene expression at cytotoxic IC50 measured after 48 hrs relative to control
[30] = Inhibition of RTK/PI3K/AKT/mTOR signaling in human U87 cells assessed as up regulation of RNA binding motif (RNP1, RRM) protein 3 gene expression at cytotoxic IC50 measured after 48 hrs relative to control
[31] = Inhibition of RTK/PI3K/AKT/mTOR signaling in human U87 cells assessed as up regulation of MYO1C gene expression at cytotoxic IC50 measured after 48 hrs relative to control
[32] = Inhibition of RTK/PI3K/AKT/mTOR signaling in human U87 cells assessed as down regulation of EIF4EBP2 gene expression at cytotoxic IC50 measured after 48 hrs relative to control

Q: Which log2FC [1] does the source give for CC(=O)C(=NNc1ccccc1C#N)C(C)=O here?
A: The log2FC was 0.943.

Q: And the log2FC [2]?
A: The log2FC was 1.28.

Q: What about the log2FC [3] of the same molecule?
A: The log2FC was 0.582.

Q: What about the log2FC [4] of the same molecule?
A: Its log2FC is -0.723.

Q: And the log2FC [5]?
A: The log2FC was 1.09.

Q: And the log2FC [6]?
A: The log2FC was -0.881.

Q: What about the log2FC [7] of the same molecule?
A: Its log2FC is 0.708.

Q: And the log2FC [8]?
A: The log2FC was 0.988.

Q: And the log2FC [9]?
A: Its log2FC is -1.65.

Q: And the log2FC [10]?
A: Its log2FC is 2.41.

Q: And the log2FC [11]?
A: The log2FC was -0.676.

Q: What about the log2FC [12] of the same molecule?
A: Its log2FC is -2.26.

Q: And the log2FC [13]?
A: Its log2FC is 0.775.

Q: What about the log2FC [14] of the same molecule?
A: The log2FC was 0.643.

Q: And the log2FC [15]?
A: The log2FC was -0.906.

Q: What about the log2FC [16] of the same molecule?
A: Its log2FC is -1.02.

Q: And the log2FC [17]?
A: The log2FC was 1.1.

Q: And the log2FC [18]?
A: Its log2FC is 1.18.

Q: And the log2FC [19]?
A: The log2FC was -1.34.

Q: What about the log2FC [20] of the same molecule?
A: Its log2FC is -0.671.

Q: And the log2FC [21]?
A: The log2FC was 0.593.

Q: And the log2FC [22]?
A: The log2FC was 1.69.

Q: What about the log2FC [23] of the same molecule?
A: The log2FC was -0.367.

Q: What about the log2FC [24] of the same molecule?
A: Its log2FC is -0.509.

Q: What about the log2FC [25] of the same molecule?
A: The log2FC was 3.5.

Q: What about the log2FC [26] of the same molecule?
A: Its log2FC is 0.56.

Q: And the log2FC [27]?
A: Its log2FC is 0.405.

Q: And the log2FC [28]?
A: Its log2FC is 0.533.

Q: And the log2FC [29]?
A: Its log2FC is -1.81.

Q: What about the log2FC [30] of the same molecule?
A: The log2FC was 1.03.

Q: What about the log2FC [31] of the same molecule?
A: The log2FC was 0.535.

Q: What about the log2FC [32] of the same molecule?
A: Its log2FC is -1.04.
